Source: the supplement of paper PMC12819154, “High-throughput peptide-centric local stability assay extends protein–ligand identification to membrane proteins, tissues and bacteria” (Nature Structural & Molecular Biology, 2025)
The other results are listed elsewhere or left out. Most entries show no effect beyond the scatter of the controls.

Amino acid sequences for entries named in this document (tags omitted). A change or cut given only in a name is not applied to a line headed by its entry.
UniProt Q5JU69: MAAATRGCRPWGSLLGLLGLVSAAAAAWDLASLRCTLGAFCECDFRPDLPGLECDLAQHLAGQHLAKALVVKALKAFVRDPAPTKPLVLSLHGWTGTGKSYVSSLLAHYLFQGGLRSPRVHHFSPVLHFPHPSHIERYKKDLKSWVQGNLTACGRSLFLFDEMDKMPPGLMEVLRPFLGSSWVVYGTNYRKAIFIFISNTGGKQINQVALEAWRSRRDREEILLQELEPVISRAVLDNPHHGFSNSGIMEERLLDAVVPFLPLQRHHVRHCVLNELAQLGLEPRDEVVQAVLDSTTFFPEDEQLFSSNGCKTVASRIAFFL
UniProt Q56UQ5: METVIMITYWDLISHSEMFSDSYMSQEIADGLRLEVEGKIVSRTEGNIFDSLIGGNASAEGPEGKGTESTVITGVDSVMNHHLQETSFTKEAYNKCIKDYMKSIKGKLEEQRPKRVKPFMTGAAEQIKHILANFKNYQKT
UniProt Q5JXB2: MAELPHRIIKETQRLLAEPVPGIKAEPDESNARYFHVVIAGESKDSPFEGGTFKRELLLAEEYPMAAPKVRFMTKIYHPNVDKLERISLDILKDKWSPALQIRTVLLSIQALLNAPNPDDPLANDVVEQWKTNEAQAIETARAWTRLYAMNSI
UniProt Q56A73: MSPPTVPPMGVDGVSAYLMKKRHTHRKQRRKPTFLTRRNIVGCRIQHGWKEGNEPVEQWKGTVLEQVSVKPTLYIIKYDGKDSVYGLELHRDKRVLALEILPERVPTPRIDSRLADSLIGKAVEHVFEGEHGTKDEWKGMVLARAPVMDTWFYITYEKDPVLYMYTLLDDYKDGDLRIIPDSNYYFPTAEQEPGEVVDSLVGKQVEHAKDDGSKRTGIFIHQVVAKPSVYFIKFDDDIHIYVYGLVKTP
UniProt Q5SXM2: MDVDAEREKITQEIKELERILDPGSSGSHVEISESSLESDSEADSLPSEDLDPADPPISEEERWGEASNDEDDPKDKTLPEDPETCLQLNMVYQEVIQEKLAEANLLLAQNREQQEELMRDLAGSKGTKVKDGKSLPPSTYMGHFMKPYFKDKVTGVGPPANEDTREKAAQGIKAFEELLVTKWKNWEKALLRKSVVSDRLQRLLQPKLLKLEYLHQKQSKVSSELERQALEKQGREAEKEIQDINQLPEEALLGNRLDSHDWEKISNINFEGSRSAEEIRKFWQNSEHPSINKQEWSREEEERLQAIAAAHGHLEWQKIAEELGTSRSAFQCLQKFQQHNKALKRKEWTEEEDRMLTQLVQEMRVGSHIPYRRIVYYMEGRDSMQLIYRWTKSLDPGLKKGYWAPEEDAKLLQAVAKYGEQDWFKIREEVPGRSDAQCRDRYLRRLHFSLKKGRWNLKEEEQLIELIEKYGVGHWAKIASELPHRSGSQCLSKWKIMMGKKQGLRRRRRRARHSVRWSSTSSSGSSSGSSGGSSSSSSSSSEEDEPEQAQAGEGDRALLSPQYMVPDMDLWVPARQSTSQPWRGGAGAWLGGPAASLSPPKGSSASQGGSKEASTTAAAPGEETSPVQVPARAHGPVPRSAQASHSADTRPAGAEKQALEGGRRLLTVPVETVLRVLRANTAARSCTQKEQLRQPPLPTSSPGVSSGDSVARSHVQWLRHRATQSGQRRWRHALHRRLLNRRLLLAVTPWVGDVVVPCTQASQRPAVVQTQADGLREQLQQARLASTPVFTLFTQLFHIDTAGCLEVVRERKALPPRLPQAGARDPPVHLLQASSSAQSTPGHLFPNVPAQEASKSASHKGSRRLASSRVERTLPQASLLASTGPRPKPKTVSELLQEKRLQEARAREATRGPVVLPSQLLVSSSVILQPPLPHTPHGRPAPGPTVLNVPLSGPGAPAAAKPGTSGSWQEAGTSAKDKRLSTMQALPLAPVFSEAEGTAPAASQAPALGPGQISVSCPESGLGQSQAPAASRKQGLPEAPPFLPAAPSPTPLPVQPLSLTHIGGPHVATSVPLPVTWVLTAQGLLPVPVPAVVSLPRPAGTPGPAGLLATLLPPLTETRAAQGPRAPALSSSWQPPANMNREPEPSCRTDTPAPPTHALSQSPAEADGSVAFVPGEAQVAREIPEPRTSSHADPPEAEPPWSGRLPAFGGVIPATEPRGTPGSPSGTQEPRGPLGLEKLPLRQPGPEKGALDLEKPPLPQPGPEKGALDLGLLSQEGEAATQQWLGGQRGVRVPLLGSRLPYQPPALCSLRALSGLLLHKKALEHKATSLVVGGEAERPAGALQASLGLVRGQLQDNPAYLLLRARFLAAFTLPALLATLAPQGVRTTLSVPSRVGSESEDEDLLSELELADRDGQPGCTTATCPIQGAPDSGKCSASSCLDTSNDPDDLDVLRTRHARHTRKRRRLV
UniProt Q4VC05, whole entry: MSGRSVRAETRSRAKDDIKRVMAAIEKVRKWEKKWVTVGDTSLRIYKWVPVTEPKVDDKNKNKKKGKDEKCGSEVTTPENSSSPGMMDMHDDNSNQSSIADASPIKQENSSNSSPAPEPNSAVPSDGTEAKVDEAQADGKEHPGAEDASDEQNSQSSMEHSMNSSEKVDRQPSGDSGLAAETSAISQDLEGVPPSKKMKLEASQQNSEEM
UniProt Q5FWF6: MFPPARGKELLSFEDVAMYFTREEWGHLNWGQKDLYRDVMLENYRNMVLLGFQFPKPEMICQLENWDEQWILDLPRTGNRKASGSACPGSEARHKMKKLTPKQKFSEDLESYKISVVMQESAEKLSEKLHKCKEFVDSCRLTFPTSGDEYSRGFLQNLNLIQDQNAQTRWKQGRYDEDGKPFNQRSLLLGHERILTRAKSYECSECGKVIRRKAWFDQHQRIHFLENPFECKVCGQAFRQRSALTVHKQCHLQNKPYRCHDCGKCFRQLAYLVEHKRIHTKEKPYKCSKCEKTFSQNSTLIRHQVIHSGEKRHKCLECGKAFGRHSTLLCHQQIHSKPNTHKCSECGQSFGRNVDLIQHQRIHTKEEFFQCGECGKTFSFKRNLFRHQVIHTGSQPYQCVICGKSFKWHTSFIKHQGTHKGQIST
UniProt Q5EBL2: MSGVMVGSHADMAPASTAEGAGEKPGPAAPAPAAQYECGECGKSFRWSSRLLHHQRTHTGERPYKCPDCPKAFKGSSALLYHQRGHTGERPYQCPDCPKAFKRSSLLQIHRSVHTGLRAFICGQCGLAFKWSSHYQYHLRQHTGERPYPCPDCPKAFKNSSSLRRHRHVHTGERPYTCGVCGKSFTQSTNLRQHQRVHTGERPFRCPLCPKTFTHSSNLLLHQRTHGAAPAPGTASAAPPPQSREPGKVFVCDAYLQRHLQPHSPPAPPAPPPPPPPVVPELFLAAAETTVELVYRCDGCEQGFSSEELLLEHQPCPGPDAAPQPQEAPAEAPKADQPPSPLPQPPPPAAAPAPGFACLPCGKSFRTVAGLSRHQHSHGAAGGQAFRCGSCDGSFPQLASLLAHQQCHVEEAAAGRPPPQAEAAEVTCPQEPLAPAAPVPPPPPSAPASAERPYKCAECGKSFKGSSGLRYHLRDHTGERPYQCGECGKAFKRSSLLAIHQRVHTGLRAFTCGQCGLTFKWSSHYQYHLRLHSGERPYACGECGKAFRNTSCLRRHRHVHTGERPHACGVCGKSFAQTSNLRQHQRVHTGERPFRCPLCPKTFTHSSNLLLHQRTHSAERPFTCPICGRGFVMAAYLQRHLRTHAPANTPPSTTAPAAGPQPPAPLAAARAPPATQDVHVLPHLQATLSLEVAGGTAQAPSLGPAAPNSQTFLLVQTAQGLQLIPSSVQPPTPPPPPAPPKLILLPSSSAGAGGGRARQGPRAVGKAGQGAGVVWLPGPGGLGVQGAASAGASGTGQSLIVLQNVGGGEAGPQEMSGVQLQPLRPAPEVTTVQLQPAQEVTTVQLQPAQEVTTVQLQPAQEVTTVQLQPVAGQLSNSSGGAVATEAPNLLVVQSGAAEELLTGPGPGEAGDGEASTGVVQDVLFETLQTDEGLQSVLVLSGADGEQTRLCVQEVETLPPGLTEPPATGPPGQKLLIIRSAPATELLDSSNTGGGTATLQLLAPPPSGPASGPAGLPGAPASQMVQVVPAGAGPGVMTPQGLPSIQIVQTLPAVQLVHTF
UniProt Q504Q3: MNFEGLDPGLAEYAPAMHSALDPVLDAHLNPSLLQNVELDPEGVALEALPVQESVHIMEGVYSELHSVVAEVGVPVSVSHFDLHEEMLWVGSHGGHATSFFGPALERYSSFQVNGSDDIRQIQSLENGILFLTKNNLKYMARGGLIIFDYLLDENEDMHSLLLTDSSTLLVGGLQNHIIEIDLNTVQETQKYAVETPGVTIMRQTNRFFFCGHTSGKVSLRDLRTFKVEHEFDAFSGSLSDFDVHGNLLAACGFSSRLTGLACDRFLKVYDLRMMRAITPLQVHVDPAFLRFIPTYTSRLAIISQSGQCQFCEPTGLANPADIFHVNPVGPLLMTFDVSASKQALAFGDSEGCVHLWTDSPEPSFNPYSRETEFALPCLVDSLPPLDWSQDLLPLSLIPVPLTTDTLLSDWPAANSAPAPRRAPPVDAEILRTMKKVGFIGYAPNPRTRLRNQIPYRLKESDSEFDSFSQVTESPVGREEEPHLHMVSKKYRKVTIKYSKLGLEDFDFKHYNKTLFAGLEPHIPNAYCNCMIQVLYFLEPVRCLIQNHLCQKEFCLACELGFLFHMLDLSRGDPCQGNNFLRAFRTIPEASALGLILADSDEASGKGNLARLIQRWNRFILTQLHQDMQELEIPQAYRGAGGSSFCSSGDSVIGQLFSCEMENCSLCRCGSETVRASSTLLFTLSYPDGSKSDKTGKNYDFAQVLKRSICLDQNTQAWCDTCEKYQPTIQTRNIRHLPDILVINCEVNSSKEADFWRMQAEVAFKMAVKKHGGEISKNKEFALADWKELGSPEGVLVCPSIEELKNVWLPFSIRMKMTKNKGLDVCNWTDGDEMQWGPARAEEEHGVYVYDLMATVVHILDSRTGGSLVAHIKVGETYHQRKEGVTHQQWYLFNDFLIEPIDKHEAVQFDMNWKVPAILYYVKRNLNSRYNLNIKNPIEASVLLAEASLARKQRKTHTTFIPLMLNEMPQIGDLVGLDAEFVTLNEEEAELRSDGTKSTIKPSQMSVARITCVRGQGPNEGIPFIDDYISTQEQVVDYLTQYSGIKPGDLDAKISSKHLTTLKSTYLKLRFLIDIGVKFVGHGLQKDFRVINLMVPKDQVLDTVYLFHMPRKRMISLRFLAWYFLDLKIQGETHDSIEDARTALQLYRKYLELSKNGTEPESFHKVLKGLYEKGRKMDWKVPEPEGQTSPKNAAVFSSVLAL
UniProt Q5T124: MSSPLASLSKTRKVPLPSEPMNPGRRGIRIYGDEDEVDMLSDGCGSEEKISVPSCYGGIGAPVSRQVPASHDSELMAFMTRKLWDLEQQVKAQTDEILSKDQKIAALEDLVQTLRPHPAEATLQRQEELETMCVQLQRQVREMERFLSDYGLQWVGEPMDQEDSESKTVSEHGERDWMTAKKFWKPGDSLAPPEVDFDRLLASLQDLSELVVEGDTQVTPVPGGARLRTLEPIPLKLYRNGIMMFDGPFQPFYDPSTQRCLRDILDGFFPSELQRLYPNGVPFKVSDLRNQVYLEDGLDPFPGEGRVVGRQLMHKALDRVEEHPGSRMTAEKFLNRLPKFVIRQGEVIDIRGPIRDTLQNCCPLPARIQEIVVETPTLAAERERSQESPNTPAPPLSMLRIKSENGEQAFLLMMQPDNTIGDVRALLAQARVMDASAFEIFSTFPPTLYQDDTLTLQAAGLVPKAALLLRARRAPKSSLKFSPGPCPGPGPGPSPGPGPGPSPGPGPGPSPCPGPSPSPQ

compound: CN[C@@H]1C[C@H]2O[C@@](C)([C@@H]1OC)n1c3ccccc3c3c4c(c5c6ccccc6n2c5c31)C(=O)NC4 [staurosporine]; test: log2 fold change of tryptic peptide abundance, ligand vs vehicle (limited proteolysis) (log2 ratio); higher = more trypsin-susceptible (destabilized); details: ligand concentration: 20 uM; sample: K562 cleared lysate; digestion: 4 min, 22 C (HT-PELSA RT4min, Orbitrap Astral)

Target	log2 fold change
TOR2A (peptide sequence: DREEILLQELEPVISR, peptide start residue: 218) (UniProt Q5JU69)	0.309
UniProt Q5VT97 (peptide sequence: VCCHGTVVLPTLFR, peptide start residue: 758)	0.542
C19orf54 (peptide sequence: SWHYQLWDYDQVR, peptide start residue: 294) (UniProt Q5BKX5)	0.406
SFT2D3 (peptide sequence: AEEPGDRPAEEWLGR, peptide start residue: 32) (UniProt Q587I9)	0.36
YOD1 (peptide sequence: TNQEYCDWIKR, peptide start residue: 205) (UniProt Q5VVQ6)	0.555
NOM1 (peptide sequence: LSEPNMASISGQLEELYMAHSRK, peptide start residue: 372) (UniProt Q5C9Z4)	0.713
UniProt Q56UQ5 (peptide sequence: VKPFMTGAAEQIK, peptide start residue: 111)	0.259
UBAP2 (peptide sequence: SQQTLDTPK, peptide start residue: 651) (UniProt Q5T6F2)	-0.183
RABGAP1L (peptide sequence: DTGGDGQESLYK, peptide start residue: 594) (UniProt Q5R372)	-0.6
UniProt Q5JQF8 (peptide sequence: KSGVGNVFIK, peptide start residue: 95)	-0.00219
UBE2NL (peptide sequence: DKWSPALQIR, peptide start residue: 93) (UniProt Q5JXB2)	0.128
SPIN4 (peptide sequence: VLALEILPERVPTPR, peptide start residue: 95) (UniProt Q56A73)	-0.0684
UniProt Q5TEU4 (peptide sequence: GSATVSFGELGK, peptide start residue: 322)	0.00937
SNAPC4 (peptide sequence: DSMQLIYR, peptide start residue: 383) (UniProt Q5SXM2)	0.332
BCL7A (peptide sequence: WVPVTEPK, peptide start residue: 48) (UniProt Q4VC05)	0.182
TBC1D10B (peptide sequence: WLDMFSNWDKWLSR, peptide start residue: 335) (UniProt Q4KMP7)	0.398
UniProt Q5FWF6 (peptide sequence: ISVVMQESAEK, peptide start residue: 114)	-0.395
DALRD3 (peptide sequence: TLSPGILGRLCLK, peptide start residue: 207) (UniProt Q5D0E6)	0.426
ZC3H12A (peptide sequence: EQPRPDVPITDQHILR, peptide start residue: 185) (UniProt Q5D1E8)	-0.758
UniProt Q5K130 (peptide sequence: KEAQEKM, peptide start residue: 95)	-0.478
PPM1J (peptide sequence: VMATIGVTR, peptide start residue: 382) (UniProt Q5JR12)	-0.0488
UniProt Q5EBL2 (peptide sequence: SFAQTSNLR, peptide start residue: 574)	0.22
UniProt Q4G0M1 (peptide sequence: EFQLLLK, peptide start residue: 135)	0.508
PAN2 (peptide sequence: IQGETHDSIEDAR, peptide start residue: 1129) (UniProt Q504Q3)	-1.12
CEP350 (peptide sequence: SVVNQLKK, peptide start residue: 2066) (UniProt Q5VT06)	0.557
UniProt Q5T124 (peptide sequence: TVSEHGER, peptide start residue: 168)	-1.07
ZNF326 (peptide sequence: NYDAFGGPSTGR, peptide start residue: 189) (UniProt Q5BKZ1)	-0.513

Single entries from the results shown.
Under log2 fold change, PPM1J (peptide sequence: VMATIGVTR, peptide start residue: 382) (UniProt Q5JR12) is listed with -0.0488
Under log2 fold change, UBAP2 (peptide sequence: SQQTLDTPK, peptide start residue: 651) (UniProt Q5T6F2) is listed with -0.183
